# Results deposited as PubChem BioAssay AID1224830 (NIAID, 2016)
# Aim: 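Regulators of TLR4 signalling towards TNF-alpha in macrophage-like cells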 (primary screen)
# System: human THP-1 monocytic leukaemia cells, TNF dual-luciferase reporter clone, PMA-differentiated to macrophage-like cells
# Reagent: siRNA pool against human genes, 50 nM
# Timing: LPS for 4 h, given about 3 days after siRNA transfection
# Challenge: bacterial LPS (TLR4 ligand), 10 ng/ml
# Measurement: 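TNF firefly reporter luminescence divided by renilla, normalised to the plate median, then turned into a robust z-score for each replicate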
# Scale: TNF reporter robust z-score: higher = stronger TNF reporter response to LPS
# Active means: 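Each well counts as active if its z-score is over 2.8 or under -1.5; controls are left without a call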
# This is a random part of about 18,000 reagents tested. About 2,900 of all reagents (16%) count as active. 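Calls are made per well; low scores hint the gene aids the LPS response, high scores that it dampens it.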 Unmarked entries are inactive. Repeated entries: four replicate wells of each siRNA pool.
Target gene,TNF reporter robust z-score
KLB (GeneID 152831),-0.49
KLB (GeneID 152831),-0.75
KLB (GeneID 152831),-1.22
KLB (GeneID 152831),-1.07
AMPD1 (GeneID 270),-1.15
AMPD1 (GeneID 270),-0.76
AMPD1 (GeneID 270),-1.27
AMPD1 (GeneID 270),-0.8
NEO1 (GeneID 4756),0.52
NEO1 (GeneID 4756),0.23
NEO1 (GeneID 4756),0.66
NEO1 (GeneID 4756),1.47
IQCB1 (GeneID 9657),-0.17
IQCB1 (GeneID 9657),0.92
IQCB1 (GeneID 9657),-0.72
JMJD1C (GeneID 221037),2.87 (active)
JMJD1C (GeneID 221037),2.98 (active)
JMJD1C (GeneID 221037),0.39
JMJD1C (GeneID 221037),1.99
JPH3 (GeneID 57338),0.53
JPH3 (GeneID 57338),0.49
JPH3 (GeneID 57338),1.13
JPH3 (GeneID 57338),0.15
NNAT (GeneID 4826),0.54
NNAT (GeneID 4826),0.34
NNAT (GeneID 4826),0.95
NNAT (GeneID 4826),0.96
TEKT5 (GeneID 146279),-0.43
TEKT5 (GeneID 146279),0.19
TEKT5 (GeneID 146279),-0.22
TEKT5 (GeneID 146279),0.58
CYRIB (GeneID 51571),-0.26
CYRIB (GeneID 51571),0.06
CYRIB (GeneID 51571),-0.32
CYRIB (GeneID 51571),-0.25
UBXN10 (GeneID 127733),-1.8 (active)
UBXN10 (GeneID 127733),-1.49
UBXN10 (GeneID 127733),-1.68 (active)
UBXN10 (GeneID 127733),-1.77 (active)
CALB2 (GeneID 794),1.33
CALB2 (GeneID 794),1.28
CALB2 (GeneID 794),1.06
CALB2 (GeneID 794),-0.03
STIM1 (GeneID 6786),0.2
STIM1 (GeneID 6786),0.5
STIM1 (GeneID 6786),9.25 (active)
STIM1 (GeneID 6786),2.37
RRM2B (GeneID 50484),0.64
RRM2B (GeneID 50484),2.05
RRM2B (GeneID 50484),0.71
RRM2B (GeneID 50484),1.59
DCLRE1A (GeneID 9937),-1.05
DCLRE1A (GeneID 9937),0.54
DCLRE1A (GeneID 9937),0.04
DCLRE1A (GeneID 9937),-0.53
KAT7 (GeneID 11143),-1.23
KAT7 (GeneID 11143),-1.6 (active)
KAT7 (GeneID 11143),-1.78 (active)
RANBP17 (GeneID 64901),1.69
RANBP17 (GeneID 64901),1.06
RANBP17 (GeneID 64901),1.94
RANBP17 (GeneID 64901),1.47
DCTN1 (GeneID 1639),0.94
DCTN1 (GeneID 1639),2.69
DCTN1 (GeneID 1639),2.45
DCTN1 (GeneID 1639),1.95
LMAN1L (GeneID 79748),-1.09
LMAN1L (GeneID 79748),-0.72
LMAN1L (GeneID 79748),-1.44
LMAN1L (GeneID 79748),-0.81
PELO (GeneID 53918),-1.19
PELO (GeneID 53918),-0.7
PELO (GeneID 53918),-0.8
PELO (GeneID 53918),0.42
ODR4 (GeneID 54953),-0.22
ODR4 (GeneID 54953),-0.82
ODR4 (GeneID 54953),0.32
ODR4 (GeneID 54953),0.11
PRKG1 (GeneID 5592),-0.73
PRKG1 (GeneID 5592),-0.65
PRKG1 (GeneID 5592),0.45
PRKG1 (GeneID 5592),0.21
CDK13 (GeneID 8621),1.5
CDK13 (GeneID 8621),5.23 (active)
CDK13 (GeneID 8621),-0.12
CDK13 (GeneID 8621),-0.85
CDRT15P3 (GeneID 408029),-0.94
CDRT15P3 (GeneID 408029),-0.81
CDRT15P3 (GeneID 408029),-1.18
CDRT15P3 (GeneID 408029),-0.1
ZMPSTE24 (GeneID 10269),0.75
ZMPSTE24 (GeneID 10269),1.94
ZMPSTE24 (GeneID 10269),0.89
ZMPSTE24 (GeneID 10269),0
NAT10 (GeneID 55226),0.25
NAT10 (GeneID 55226),0.76
NAT10 (GeneID 55226),-0.73
NAT10 (GeneID 55226),1.04
NUP160 (GeneID 23279),-0.34
NUP160 (GeneID 23279),1.22
NUP160 (GeneID 23279),0.35
NUP160 (GeneID 23279),0.95
ATP9B (GeneID 374868),0.48
ATP9B (GeneID 374868),0.99
ATP9B (GeneID 374868),0.08
ATP9B (GeneID 374868),1.28
RPL21 (GeneID 6144),-0.23
RPL21 (GeneID 6144),-0.26
RPL21 (GeneID 6144),-0.34
RPL21 (GeneID 6144),0.1

Reformatted: entries from further up.
NAT10 (GeneID 55226)
- TNF reporter robust z-score: -0.73

NAT10 (GeneID 55226)
- TNF reporter robust z-score: 1.04

NUP160 (GeneID 23279)
- TNF reporter robust z-score: -0.34

NUP160 (GeneID 23279)
- TNF reporter robust z-score: 1.22

NUP160 (GeneID 23279)
- TNF reporter robust z-score: 0.35

NUP160 (GeneID 23279)
- TNF reporter robust z-score: 0.95

ATP9B (GeneID 374868)
- TNF reporter robust z-score: 0.48

ATP9B (GeneID 374868)
- TNF reporter robust z-score: 0.99

ATP9B (GeneID 374868)
- TNF reporter robust z-score: 0.08

ATP9B (GeneID 374868)
- TNF reporter robust z-score: 1.28

RPL21 (GeneID 6144)
- TNF reporter robust z-score: -0.23

RPL21 (GeneID 6144)
- TNF reporter robust z-score: -0.26

RPL21 (GeneID 6144)
- TNF reporter robust z-score: -0.34
